Data taken from article doi:10.1101/2021.01.15.426901.
Read-outs that look alike come from different tables or passages of the source. No constants are given. Whether binding was seen depends on the method and setting. Binding seen in cells or lysates may run through a third protein. Here binding means that the protein was enriched with, or labelled near, the bait; the list need not be complete.

The chains behind the UniProt entries cited, without tags or fusion partners. Where a name states a change or a piece, a line headed by the entry shows the natural chain unless it says otherwise.
UniProt Q562E2: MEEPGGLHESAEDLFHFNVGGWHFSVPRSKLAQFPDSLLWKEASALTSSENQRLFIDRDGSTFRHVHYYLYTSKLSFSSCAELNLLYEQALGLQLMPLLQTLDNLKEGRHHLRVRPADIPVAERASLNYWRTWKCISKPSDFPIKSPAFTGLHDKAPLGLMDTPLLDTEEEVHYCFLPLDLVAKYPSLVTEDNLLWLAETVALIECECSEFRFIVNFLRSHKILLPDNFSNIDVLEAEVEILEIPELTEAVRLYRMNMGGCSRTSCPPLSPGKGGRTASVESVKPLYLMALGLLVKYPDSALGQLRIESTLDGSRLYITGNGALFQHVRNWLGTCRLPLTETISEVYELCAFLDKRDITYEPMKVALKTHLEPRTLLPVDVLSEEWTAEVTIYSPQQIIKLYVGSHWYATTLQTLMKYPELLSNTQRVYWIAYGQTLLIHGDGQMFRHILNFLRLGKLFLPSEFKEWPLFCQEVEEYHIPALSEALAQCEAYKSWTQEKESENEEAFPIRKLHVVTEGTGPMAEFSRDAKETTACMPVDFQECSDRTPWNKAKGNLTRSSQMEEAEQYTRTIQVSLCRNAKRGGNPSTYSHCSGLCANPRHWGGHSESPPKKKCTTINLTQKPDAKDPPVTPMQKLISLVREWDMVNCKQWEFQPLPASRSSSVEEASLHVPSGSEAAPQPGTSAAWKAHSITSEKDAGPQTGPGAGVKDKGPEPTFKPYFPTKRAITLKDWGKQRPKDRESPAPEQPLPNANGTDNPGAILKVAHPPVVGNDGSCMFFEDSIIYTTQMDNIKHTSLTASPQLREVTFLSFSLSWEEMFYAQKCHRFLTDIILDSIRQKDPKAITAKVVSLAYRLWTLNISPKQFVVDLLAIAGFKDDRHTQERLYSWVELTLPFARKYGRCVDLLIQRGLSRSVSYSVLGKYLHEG
UniProt O09106: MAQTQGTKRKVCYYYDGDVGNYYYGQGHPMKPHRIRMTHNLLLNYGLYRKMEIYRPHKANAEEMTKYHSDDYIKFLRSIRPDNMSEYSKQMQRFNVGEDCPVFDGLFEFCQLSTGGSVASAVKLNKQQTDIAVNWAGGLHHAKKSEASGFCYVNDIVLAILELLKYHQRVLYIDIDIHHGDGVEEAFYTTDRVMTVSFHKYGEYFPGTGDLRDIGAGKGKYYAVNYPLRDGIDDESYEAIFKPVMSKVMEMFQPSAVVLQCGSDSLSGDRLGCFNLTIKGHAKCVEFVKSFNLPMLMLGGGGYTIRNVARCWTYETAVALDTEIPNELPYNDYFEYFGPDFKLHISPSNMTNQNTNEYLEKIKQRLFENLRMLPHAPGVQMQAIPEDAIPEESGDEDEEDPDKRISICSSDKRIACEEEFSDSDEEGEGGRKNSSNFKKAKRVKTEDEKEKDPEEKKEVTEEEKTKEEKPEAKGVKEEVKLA
UniProt P70288: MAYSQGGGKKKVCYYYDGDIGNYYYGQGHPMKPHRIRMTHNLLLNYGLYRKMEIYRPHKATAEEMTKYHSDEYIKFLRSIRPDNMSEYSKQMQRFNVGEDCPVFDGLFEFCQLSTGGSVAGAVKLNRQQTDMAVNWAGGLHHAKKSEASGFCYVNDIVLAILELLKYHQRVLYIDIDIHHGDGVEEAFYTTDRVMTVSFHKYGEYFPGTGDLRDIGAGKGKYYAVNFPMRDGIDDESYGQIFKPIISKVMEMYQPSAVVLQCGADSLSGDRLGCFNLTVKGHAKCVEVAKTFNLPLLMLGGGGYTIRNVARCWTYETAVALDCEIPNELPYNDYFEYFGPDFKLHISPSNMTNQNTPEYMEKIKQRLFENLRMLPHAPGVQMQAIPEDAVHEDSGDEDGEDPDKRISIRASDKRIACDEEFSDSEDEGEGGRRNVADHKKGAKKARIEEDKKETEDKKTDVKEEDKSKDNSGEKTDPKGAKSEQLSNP

T1: ZFP541 (mouse (endogenous in testis)) (UniProt Q0GGX2)
T1 sequence: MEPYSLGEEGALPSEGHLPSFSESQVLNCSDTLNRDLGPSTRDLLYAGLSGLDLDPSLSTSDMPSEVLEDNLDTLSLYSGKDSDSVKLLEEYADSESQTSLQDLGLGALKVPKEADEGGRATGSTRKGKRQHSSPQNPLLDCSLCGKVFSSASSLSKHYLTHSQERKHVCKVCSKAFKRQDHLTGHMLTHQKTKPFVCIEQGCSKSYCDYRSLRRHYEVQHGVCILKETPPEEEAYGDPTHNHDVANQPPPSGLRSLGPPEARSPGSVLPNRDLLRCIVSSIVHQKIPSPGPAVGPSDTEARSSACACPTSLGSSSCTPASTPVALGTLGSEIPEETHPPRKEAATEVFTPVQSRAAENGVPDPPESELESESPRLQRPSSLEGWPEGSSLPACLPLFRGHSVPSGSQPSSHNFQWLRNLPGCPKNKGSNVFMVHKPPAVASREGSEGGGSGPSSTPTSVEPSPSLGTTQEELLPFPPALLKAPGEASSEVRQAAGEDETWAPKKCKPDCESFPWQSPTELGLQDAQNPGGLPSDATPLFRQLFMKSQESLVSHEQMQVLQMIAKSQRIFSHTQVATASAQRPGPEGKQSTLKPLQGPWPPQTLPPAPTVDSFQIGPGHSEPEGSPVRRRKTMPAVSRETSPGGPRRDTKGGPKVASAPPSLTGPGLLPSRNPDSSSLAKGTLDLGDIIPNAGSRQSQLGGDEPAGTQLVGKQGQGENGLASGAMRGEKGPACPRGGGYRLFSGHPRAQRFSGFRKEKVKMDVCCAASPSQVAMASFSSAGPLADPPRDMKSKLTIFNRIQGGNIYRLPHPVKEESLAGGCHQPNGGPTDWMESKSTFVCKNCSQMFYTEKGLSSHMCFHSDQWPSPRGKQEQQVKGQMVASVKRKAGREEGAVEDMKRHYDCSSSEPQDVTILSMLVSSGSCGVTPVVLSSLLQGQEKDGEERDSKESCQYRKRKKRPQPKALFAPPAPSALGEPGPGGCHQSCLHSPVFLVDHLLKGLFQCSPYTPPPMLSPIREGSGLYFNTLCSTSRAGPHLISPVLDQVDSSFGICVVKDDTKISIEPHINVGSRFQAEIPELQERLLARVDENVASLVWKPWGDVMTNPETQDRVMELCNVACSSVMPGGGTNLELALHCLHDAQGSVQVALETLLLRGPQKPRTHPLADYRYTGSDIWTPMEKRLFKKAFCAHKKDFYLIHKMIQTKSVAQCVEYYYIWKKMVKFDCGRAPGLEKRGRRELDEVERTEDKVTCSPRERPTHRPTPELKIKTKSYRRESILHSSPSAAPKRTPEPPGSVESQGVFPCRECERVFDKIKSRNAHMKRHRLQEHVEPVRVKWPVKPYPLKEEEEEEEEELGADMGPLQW


How the values were obtained:
Experiment in all cases: affinity purification with mass spectrometry
[1] = biological target: T1, ZFP541 (mouse (endogenous in testis))
[2] = biological target: KCTD19 (mouse (endogenous in testis)) (UniProt Q562E2)
[3] = biological target: T1, ZFP541 (mouse (endogenous in testis)); remark: listed apart in the source
[4] = biological target: T1, ZFP541 (mouse (endogenous in testis)); remark: listed apart in the source
[5] = biological target: KCTD19 (mouse (endogenous in testis)) (UniProt Q562E2); remark: listed apart in the source

| Molecule | binding [1] | binding [2] | binding [3] | binding [4] | binding [5] |
| --- | --- | --- | --- | --- | --- |
| HDAC1 (from UniProt O09106 1-482) (enzyme) | binds | binds | binds | binds | – |
| KCTD19 (from UniProt Q562E2-2) | binds | – | binds | binds | – |
| HDAC2 (from UniProt P70288 1-488) (enzyme) | binds | binds | binds | binds | – |

Further lines, results first:

| binding [1] | binding [2] | binding [3] | binding [4] | binding [5] | Molecule |
| --- | --- | --- | --- | --- | --- |
| – | – | – | – | binds | Transcription regulatory factor 1 (TRERF1) (protein, UniProt Q8BXJ2 1-1205) MGDQQLYKTNHVGHGGENLFYQQPPLGVHSGLGHSYGNTISGAGMDAPQASPISPHFPQDTRDGLGLPIGSKNLGQMDTSRQGGWGSHAGPGNHVQLRSNLANSNMMWGTPTQVEPADGYQYTYSQASEIRTQKLTSGVLHKLDSFTQVFANQNLRIQVNNMAQVLHTQSAVMDGASDSALRQLLSQKPVEPSASAIASRYQQVPQQPHPGFTGGLPKPALPVGQHAPQGHLYYDYQQPLAQMSMQGGQPLQAPQVLSGHMQQLQQHQYYPQPPPQQQQAGLQRISVQEMQQQQQPQQIRPSPPQQQQQLQLQQRQSSLQIPQYYQPQPMMQHLQEQQQPSMHLQPPSYHRDPHQYTPEQAHAVQLIQLGSMPQYYYQEPQQAYSHPLYPQSHLSQHQQREDGQLKTYSSDRQTPAMLSSHGDMGTSDTGVADPASSEMTRVTSTLPHQPLLSPSGIHLNNMGSQHQQPPSPSAMWPQMHLPDGRAQSGSPESSSGQTKGVFGEQFDAKNKLTCSICLKEFKSLPALNGHMRSHGGMRASPSLKQEEGEKAPPPQPQPQPQPQQPLPPPPPPPPPPQLPPEAERLTPMVMPVSVPVKLIPPKPSSQGFTNSVAATPAARDKPASSMSDDEMPVLEIPRKHPPIAAKVEEPLKNLPEKKKFRHRPEPLFIPPPPSSYTPNPTSYSGATLYQSQLRSPRILGDHLLLDPAHELPPYTPPPMLSPVRQGSGLFSNVLISGHGPGVHPQLPLTPLTPTPRVLLCRSSSIDGSNVTVTPGPGEQTVDVEPRINIGLRFQAEIPELQDVSALAQDTHRATLVWKPWPELENQALQQQVENLLNLCCSSALPGGGTNSEFALHSLFEAKGDVMATLEMLLLRKPVRLKCHPLANYHYAGSDKWTSLERKLFNKALATYSKDFIFVQKMVKSKTVAQCVEYYYTWKKIMRLGRKHRTRLAEIIDDCMTSEEEEEAEEEEEDPEEDRKSIKEEESEVAKSPEPPPAPALAPTEGPPMQAVGQQPSGNFICEMPNCGAVFSSRQALNGHARIHGGTNQVAKTRGAIPSGKQKPGGTQSGYCSVKSSPSHSTTSGETDPTTIFPCKECGKVFFKIKSRNAHMKTHRQQEEQQRQKAQKAAFAAEMAATIERTTGPVGAPELLPLDQLSLMKPVKDVDILDDDVVQQLGVMDEAEVVGTDLLLDDQDSVLLQGDTEL |
| binds | – | binds | binds | binds | terminal deoxynucleotidyltransferase interacting factor 1 (TDIF1) (protein, UniProt Q99LB0 1-328) MGATGDTEQPRGPGGAERGGLELGDAGAAGQPVLTNPWNIMIKHRQVQRRGRRSQMTTSFTDPAISMDLLRAVLQPSINEEIQGVFNKYMKFFQKAALNVRDNVGEEVDAEQLIQEACRSCLEQAKLLFSDGEKVIPRLAHELPGIKRGRQAEEESHRGSPIPKKRKGRPPGHVLSNDRAAAGMVWKQKSCEPIRREGPKWDPARLNESTTFVLGSRANKALGMGGTRGRIYIKHPHLFKYAADPQDKHWLAEQHHMRATGGKMAYLLIEEDIRDLAASDDYRGCLDLKLEELKSFVLPSWMVEKMRKYMETLRTENEHRAAEAPPQT |
| – | – | – | – | binds | ZFP541 (protein, UniProt Q0GGX2 1-1363) MEPYSLGEEGALPSEGHLPSFSESQVLNCSDTLNRDLGPSTRDLLYAGLSGLDLDPSLSTSDMPSEVLEDNLDTLSLYSGKDSDSVKLLEEYADSESQTSLQDLGLGALKVPKEADEGGRATGSTRKGKRQHSSPQNPLLDCSLCGKVFSSASSLSKHYLTHSQERKHVCKVCSKAFKRQDHLTGHMLTHQKTKPFVCIEQGCSKSYCDYRSLRRHYEVQHGVCILKETPPEEEAYGDPTHNHDVANQPPPSGLRSLGPPEARSPGSVLPNRDLLRCIVSSIVHQKIPSPGPAVGPSDTEARSSACACPTSLGSSSCTPASTPVALGTLGSEIPEETHPPRKEAATEVFTPVQSRAAENGVPDPPESELESESPRLQRPSSLEGWPEGSSLPACLPLFRGHSVPSGSQPSSHNFQWLRNLPGCPKNKGSNVFMVHKPPAVASREGSEGGGSGPSSTPTSVEPSPSLGTTQEELLPFPPALLKAPGEASSEVRQAAGEDETWAPKKCKPDCESFPWQSPTELGLQDAQNPGGLPSDATPLFRQLFMKSQESLVSHEQMQVLQMIAKSQRIFSHTQVATASAQRPGPEGKQSTLKPLQGPWPPQTLPPAPTVDSFQIGPGHSEPEGSPVRRRKTMPAVSRETSPGGPRRDTKGGPKVASAPPSLTGPGLLPSRNPDSSSLAKGTLDLGDIIPNAGSRQSQLGGDEPAGTQLVGKQGQGENGLASGAMRGEKGPACPRGGGYRLFSGHPRAQRFSGFRKEKVKMDVCCAASPSQVAMASFSSAGPLADPPRDMKSKLTIFNRIQGGNIYRLPHPVKEESLAGGCHQPNGGPTDWMESKSTFVCKNCSQMFYTEKGLSSHMCFHSDQWPSPRGKQEQQVKGQMVASVKRKAGREEGAVEDMKRHYDCSSSEPQDVTILSMLVSSGSCGVTPVVLSSLLQGQEKDGEERDSKESCQYRKRKKRPQPKALFAPPAPSALGEPGPGGCHQSCLHSPVFLVDHLLKGLFQCSPYTPPPMLSPIREGSGLYFNTLCSTSRAGPHLISPVLDQVDSSFGICVVKDDTKISIEPHINVGSRFQAEIPELQERLLARVDENVASLVWKPWGDVMTNPETQDRVMELCNVACSSVMPGGGTNLELALHCLHDAQGSVQVALETLLLRGPQKPRTHPLADYRYTGSDIWTPMEKRLFKKAFCAHKKDFYLIHKMIQTKSVAQCVEYYYIWKKMVKFDCGRAPGLEKRGRRELDEVERTEDKVTCSPRERPTHRPTPELKIKTKSYRRESILHSSPSAAPKRTPEPPGSVESQGVFPCRECERVFDKIKSRNAHMKRHRLQEHVEPVRVKWPVKPYPLKEEEEEEEEELGADMGPLQW |
| – | – | – | – | binds | MIDEAS (protein, UniProt E9Q2I4 1-1089) MNLQAQSKAQSKRKRCPFGDQEPAAKEQPPPLQSPPQSLRAKEEQYGAHEGPTGVASTTQPVELSPPNNLALLNSVVYGSERTTAAMLSQQAQVSSVKWPSSVMAPGRGLERGGGGGISDSGWQQQPGQPPPHSTWNHLPLYGGPKGSPHPGVGVPPYYNHPEALKGNKPGGPQLDHYGNAVQPMVPQKVQLEVGRPQAPLNSFHAAKKPPNQTLPLQPFQLAFGHQVNRQVFRQGPQPSNPTASFPPQKQQQQQQPAALPQMQLFENYYPMHQLPSQQHQDFGLAPGGPLGQTHLAHRSMAPYPFSHNPDMNPELRKALLQDPASQPVLPQPQMAFPRRSRRLSKEGILPSNSLDGAGTQPGQEPASNLFLHHWSLPQPPPGTLGQPHSEALGFPLELRESQMLADGDRLAPNGREREPPAMGNEEVMRAGGLGDCGQMIRSGVIQSTKRRRRVSQEANLLTLAQKAVELASMQDANGSEEKRKSVLATTSRCGVEFSEPALAAKRAREESGMVPLIIPVSVPVRTVGPTEVAQVGGADEDGTGLEQYPTEHKPSVIVTRRRSTRVPGTDAAAQAEDLNVKLEGEPSMRKPKQRPRPEPLIIPTKAGTFIAPPVYSNITPYQSHLRSPVRLADHPSERSFEPPPYTPPPILSPVREGSGLYFNAIISTSNIPAPPPITPKSAHRTLLRSNSSEVTPPVLSVMGEATPVSIEPRINVGTRFQAEIPMMRDRALAAFDPHKADLVWQPWEHLESSWEKQRQVDDLLTAACSSIFPGAGTNQELALHYLHESRGDILEALNKLLLRKPLRPHNHPLATYHYTGSDQWKTAERKLFNKGIAIYKKDFFLVQKLIQTKTVAQCVEFYYTYKKQVKIGRNGTLTFGDLDIGDEKSGQEEVEVDVKTSQKFPRVPPPRRESPSEERLEPKREVTEPRKEGEEEVPDTQEKGEQEEGRERCRRAAAVKATQTLQANEAANDVLILRSHEPNAPGSAGIQTSEKPREGPGKSRRALPFTEKKKKAEAFNKTQNQENTFPCKKCGRVFYKVKSRSAHMKSHAEQEKKAAALRLKEKEAAAAAAHQQALREESGEGEKG |
